Laboratory results as given in paper PMC6643436.

System: CDYL (recombinant, Abnova H00009425-P01)
Assay: EMSA
Conditions: 60 fmol labelled probe, 5 uL recombinant CDYL (or SCLC nuclear proteins), 20 min at 20 C, 6% polyacrylamide gel at 4 C; salt and pH not stated; commercial protein

GGGCCCGGAACTCACGACCCCCGACAGCGGTCTCCCCCGCCCCCCCAACCCCG (double strand) [CDKN1C promoter EMSA probe]
binding result: binds

For at least one entry, the source does not settle the construct or the ends of the probe.
